According to patent publication US8232059B2, “Method of identifying A. baumannii with OXA-131-like drug resistance in diabetic patients” (priority 2010, dated 2012):
At least one structure is not confirmed: it was looked up by name or label, or the drawing left a doubt.

System: A. baumannii isolates
Experiment: MICs (minimum inhibitory concentrations) for susceptibility to known antibiotics, British Society for Antimicrobial Chemotherapy guidelines
Type: cell-based, Acinetobacter baumannii
Details: 20 clinical isolates from diabetic patients
From the text: All twenty isolates were further tested for MICs (minimum inhibitory concentrations) for susceptibility to several known antibiotics using the British Society for Antimicrobial Chemotherapy guidelines.

CC1COc2c(N3CCN(C)CC3)c(F)cc3c(=O)c(C(=O)O)cn1c23 (centres unmarked) [Ofloxacin]
susceptibility/resistance of the isolates in words: majority was also resistant

CO[C@H]1/C=C/O[C@@]2(C)Oc3c(C)c(O)c4c(O)c(c(/C=N/N5CCN(C)CC5)c(O)c4c3C2=O)NC(=O)/C(C)=C\C=C\[C@H](C)[C@H](O)[C@@H](C)[C@@H](O)[C@@H](C)[C@H](OC(C)=O)[C@@H]1C [Rifampicin]
susceptibility/resistance of the isolates in words: majority was also resistant

CN(C)[C@@H]1C(O)=C(C(N)=O)C(=O)[C@@]2(O)C(O)=C3C(=O)c4c(O)cccc4[C@@](C)(O)[C@H]3C[C@@H]12 [Tetracycline]
MIC range: 2->128
susceptibility/resistance of the isolates in words: highly resistant

C[C@@H](O)[C@H]1C(=O)N2C(C(=O)O)=C(SCCN=CN)C[C@H]12 [Imipenem]
susceptibility/resistance of the isolates in words: susceptible
